PubChem BioAssay AID720505 – Drosophila RNAi Screening Center | 2013
In all, the deposit lists about 20,000 reagents; this is an unselected part of those that have a named target and a result. In the full data, about 2,100 (10%) were called active. 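Raw plate signals without normalisation; calls rest on control-based scores that were not deposited; replicate 2 separates called from uncalled poorly.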 Entries without a mark were called inactive. No sequences are given here. Not stated in the record: the amount of reagent, the time to read-out.

Screen: 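Fly regulators or components of the CRAC channel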 (primary screen)
System: Drosophila S2R+ cells
Reagent: long dsRNA against Drosophila genes
Treatment: thapsigargin (2 µM) in calcium-free buffer to empty internal stores, then 2 mM calcium added back
Detection: 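Stores emptied by 2 µM thapsigargin without calcium, then 2 mM calcium re-added; fluo-4 fluorescence followed by FLIPR in 384-well plates, per-well averaged endpoint, raw; two screen passes, some wells retested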
Direction: calcium signal: higher = more calcium entry after store depletion
Hit rule: 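Knock-downs counted as hits when calcium entry dropped relative to STIM1 positive and Rho1 negative controls present on each plate; roughly 1500 genes called, with reductions of differing size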
Calls: active = called as lowering calcium entry; inactive = not called

target gene | dsRNA | calcium signal, replicate 1 | calcium signal, replicate 2
CG11737 | DRSC14364 | 143 | 186
Tab2 | DRSC07481 | 113 | 109
Tsp42Ef | DRSC06191 | 106 | 83.4
CG30110 | DRSC05686 | 105 | 93
Pcif1 | DRSC11655 | 126 | 120
Obp50d | DRSC05483 | 75.9 | 101
RpL36 | DRSC18708 | 53.6 (active) | 70.6
